# Data published in patent US20080305559A1, “Non-Competitive Immunoassays to Detect Small Molecules” (priority 2005, published 2008).
# “And” between values parts separate entries of the source, which are not always exact repeats. Identical values can stand only once. For at least one compound, name, drawing or mass did not settle the structure.
# Tests used:
# [1] = test system: PBA-antibody immunocomplex (anti-PBA polyclonal antibodies); assay: Noncompetitive phage ELISA (PHAIA) for PBA; format: binding, rabbit; conditions: plates coated with 10 μg/ml protein G purified IgG; phage borne peptide CFNGKDWLYC
# [2] = test system: anti-PBA polyclonal antibodies; assay: Cross-reactivity of the noncompetitive phage ELISA for PBA; format: binding, rabbit
# Experimental: The specificity of the noncompetitive assay set up with the phage borne peptide was characterized by determining its cross-reactivity with structurally related pesticides. PBA concentrations in the 0-50 ng/ml range were used in the noncompetitive ELISAs. Data were normalized, and the molar compound concentration corresponding to the midpoint of the curve, (which corresponds to the concentration of analyte producing 50% saturation of the signal (SC50), was used to express the cross-reactivity of the assay according to the equation:
# % cross−reactivity=100×[SC50(PBA)/SC50(cross−reacting compound)]
# [3] = test system: anti-PBA polyclonal antibodies; conditions: Shan et al. 2004, same polyclonal antibodies; cited from earlier work
compound,measurement,setting,value
"O=C(O)c1cccc(Oc2ccccc2)c1 [PBA, phenoxybenzoic acid]",SC50 (concentration of analyte at which ELISA readings are 50% of the maximal signal),[1],0.31 ± 0.03 ng/mL
same,CR (%),[2]; % cross-reactivity=100×[SC50(PBA)/SC50(cross-reacting compound)],100%
same,IC50,[2]; noncompetitive phage ELISA for PBA,0.3 ng/mL
same,IC50 (50% inhibition concentration) of competitive ELISA,[3],1.29 ng/mL and 1.65 ng/mL
